Results reported in patent US10344069 (dated 2019).

Experiment: general procedure: Fmoc solid-phase peptide synthesis; 2-chlorotrityl chloride (CTC) resin; DIC/HOBT
Settings: for final purity (method not given): purification step; for crude purity (method not given): whole synthesis

Substance | final purity (method not given) (run 1) | final purity (method not given) (run 2) | crude purity (method not given) (run 1) | crude purity (method not given) (run 2) | crude purity (method not given)
Liraglutide | 99.4% | >99% | 48% | 50.8% | 
Boc-His (Trt)-Ala-Glu (Otbu)-Gly |  |  |  |  | 87.5%
Fmoc-Ser (tbu)-Tyr (tbu)-Leu-Glu (Otbu)-Gly |  |  |  |  | 95.2%
